Measured values as given in article PMC12094083.
Results are given in words; binding and its absence hold for the method and conditions named. In cells and extracts the contact can be indirect. Some results given as binding are weak or reduced against the parent protein; the word gives no strength.

Amino acid sequences for entries named in this document (tags omitted).
UniProt Q8IWV7: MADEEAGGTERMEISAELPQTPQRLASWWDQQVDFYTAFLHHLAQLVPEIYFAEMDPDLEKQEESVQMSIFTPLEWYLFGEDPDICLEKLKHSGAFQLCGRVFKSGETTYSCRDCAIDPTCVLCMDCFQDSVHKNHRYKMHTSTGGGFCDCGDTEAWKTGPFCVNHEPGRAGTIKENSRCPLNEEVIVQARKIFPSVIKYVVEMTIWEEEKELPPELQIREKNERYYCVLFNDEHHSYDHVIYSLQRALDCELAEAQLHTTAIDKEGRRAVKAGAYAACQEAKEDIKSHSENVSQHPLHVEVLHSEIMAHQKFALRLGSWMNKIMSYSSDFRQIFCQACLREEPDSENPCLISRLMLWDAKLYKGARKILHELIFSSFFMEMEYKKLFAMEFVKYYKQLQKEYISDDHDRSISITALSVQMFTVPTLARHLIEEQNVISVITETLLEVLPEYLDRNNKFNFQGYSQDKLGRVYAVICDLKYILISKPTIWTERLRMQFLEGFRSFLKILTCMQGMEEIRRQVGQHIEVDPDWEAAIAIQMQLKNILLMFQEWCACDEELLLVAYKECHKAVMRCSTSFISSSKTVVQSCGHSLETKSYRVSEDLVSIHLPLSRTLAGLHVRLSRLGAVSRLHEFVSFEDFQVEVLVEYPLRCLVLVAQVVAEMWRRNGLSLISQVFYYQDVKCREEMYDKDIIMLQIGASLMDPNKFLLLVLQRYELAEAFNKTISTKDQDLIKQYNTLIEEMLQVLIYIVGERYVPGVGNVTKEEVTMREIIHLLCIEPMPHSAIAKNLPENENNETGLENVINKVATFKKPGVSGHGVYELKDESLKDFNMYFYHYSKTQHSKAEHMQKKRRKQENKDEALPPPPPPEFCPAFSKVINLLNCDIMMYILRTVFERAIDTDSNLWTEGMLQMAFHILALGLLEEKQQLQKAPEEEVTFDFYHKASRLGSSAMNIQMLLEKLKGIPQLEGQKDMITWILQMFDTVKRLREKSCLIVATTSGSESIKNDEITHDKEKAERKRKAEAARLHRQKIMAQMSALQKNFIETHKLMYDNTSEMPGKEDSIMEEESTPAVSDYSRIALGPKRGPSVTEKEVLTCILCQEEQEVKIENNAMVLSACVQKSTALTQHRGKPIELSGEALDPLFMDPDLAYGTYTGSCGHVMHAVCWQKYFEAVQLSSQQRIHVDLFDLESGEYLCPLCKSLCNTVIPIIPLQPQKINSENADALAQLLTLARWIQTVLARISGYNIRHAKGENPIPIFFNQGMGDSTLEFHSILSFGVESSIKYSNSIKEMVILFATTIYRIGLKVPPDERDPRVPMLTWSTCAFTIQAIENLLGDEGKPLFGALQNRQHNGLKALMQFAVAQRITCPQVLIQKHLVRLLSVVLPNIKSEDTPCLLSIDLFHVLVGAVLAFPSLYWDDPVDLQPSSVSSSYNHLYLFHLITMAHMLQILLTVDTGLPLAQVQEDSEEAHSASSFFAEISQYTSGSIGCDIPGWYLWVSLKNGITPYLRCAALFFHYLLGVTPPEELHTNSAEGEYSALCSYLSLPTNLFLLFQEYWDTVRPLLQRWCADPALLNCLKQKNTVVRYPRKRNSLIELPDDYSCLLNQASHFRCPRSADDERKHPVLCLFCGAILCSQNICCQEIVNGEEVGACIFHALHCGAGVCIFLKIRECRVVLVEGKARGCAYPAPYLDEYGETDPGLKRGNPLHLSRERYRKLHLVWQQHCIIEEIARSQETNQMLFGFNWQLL
UniProt Q8IWV8: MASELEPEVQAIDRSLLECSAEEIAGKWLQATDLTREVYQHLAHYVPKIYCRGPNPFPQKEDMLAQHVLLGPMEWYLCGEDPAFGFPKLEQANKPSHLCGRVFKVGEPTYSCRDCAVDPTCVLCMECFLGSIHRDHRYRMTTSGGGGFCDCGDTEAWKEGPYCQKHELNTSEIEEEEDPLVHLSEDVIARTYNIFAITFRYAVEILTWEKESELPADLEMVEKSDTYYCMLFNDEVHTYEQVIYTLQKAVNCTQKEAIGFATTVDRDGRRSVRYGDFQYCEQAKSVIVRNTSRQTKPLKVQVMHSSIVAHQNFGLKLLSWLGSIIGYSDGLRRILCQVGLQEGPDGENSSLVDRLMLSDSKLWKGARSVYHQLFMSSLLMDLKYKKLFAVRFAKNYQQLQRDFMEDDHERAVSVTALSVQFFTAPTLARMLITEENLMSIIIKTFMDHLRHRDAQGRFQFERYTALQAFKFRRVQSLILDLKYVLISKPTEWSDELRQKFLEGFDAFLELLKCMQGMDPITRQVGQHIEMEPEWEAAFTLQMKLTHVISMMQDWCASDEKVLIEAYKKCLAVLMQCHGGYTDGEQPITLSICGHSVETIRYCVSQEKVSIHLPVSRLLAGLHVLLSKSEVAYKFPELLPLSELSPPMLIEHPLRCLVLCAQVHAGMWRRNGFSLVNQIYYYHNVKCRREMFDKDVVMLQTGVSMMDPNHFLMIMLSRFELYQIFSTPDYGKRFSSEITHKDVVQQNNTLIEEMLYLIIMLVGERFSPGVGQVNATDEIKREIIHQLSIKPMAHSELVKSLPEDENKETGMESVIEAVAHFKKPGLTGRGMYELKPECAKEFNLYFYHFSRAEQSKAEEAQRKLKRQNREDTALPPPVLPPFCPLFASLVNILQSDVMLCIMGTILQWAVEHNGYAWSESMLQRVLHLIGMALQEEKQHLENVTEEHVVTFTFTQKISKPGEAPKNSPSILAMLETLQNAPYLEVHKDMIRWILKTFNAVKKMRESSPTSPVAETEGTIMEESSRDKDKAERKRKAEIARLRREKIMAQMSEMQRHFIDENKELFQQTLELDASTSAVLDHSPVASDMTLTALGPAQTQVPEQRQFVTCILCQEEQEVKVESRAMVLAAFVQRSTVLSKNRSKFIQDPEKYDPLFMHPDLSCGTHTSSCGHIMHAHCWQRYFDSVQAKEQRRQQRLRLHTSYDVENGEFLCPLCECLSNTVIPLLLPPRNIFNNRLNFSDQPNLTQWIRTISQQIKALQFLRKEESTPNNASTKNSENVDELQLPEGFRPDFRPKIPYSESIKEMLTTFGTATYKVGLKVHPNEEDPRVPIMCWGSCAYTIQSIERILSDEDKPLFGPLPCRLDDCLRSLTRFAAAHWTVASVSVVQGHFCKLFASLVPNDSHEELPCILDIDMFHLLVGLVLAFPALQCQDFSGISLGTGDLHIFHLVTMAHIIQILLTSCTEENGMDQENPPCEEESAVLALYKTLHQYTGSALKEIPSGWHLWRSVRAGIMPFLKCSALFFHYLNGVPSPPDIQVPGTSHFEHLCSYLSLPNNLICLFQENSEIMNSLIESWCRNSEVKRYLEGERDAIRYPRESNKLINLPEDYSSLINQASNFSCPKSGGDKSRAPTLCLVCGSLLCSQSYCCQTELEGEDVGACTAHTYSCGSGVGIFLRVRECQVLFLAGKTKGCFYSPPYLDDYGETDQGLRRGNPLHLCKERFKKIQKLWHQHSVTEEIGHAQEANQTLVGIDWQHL

Key:
UBR1 = UBR1 (UniProt Q8IWV7); assay: co-IP; co-immunoprecipitation of SOD2 and UBR1 (Figure S5A); cells and precipitated partner not given
[1] = target: UBR2 (human (endogenous in Jurkat)) (UniProt Q8IWV8); assay: co-IP; immunoprecipitation of UBR2 from an isolated cytosolic cell fraction of Jurkat cells; SOD2 found by western blot
[2] = target: UBR2 (human (endogenous in Jurkat)) (UniProt Q8IWV8); assay: co-IP; immunoprecipitation of UBR2 from a whole cell lysate of Jurkat cells in a non-denaturing buffer (Frackelton buffer, 1% Triton X-100); SOD2 found by western blot

Measured: binding

B1: superoxide dismutase 2 (SOD2) (protein, UniProt P04179 25-222)
chain: KHSLPDLPYDYGALEPHINAQIMQLHHSKHHAAYVNNLNVTEEKYQEALAKGDVTAQIALQPALKFNGGGHINHSIFWTNLSPNGGGEPKGELLEAIKRDFGSFDKFKEKLTAASVGVQGSGWGWLGFNKERGHLQIAACPNQDPLQGTTGLIPLLGIDVWEHAYYLQYKNVRPDYLKAIWNVINWENVTERYMACKK
binds: all assays above
